Two substances from PMC5342088 can be followed below.

No constants are given. Whether binding was seen depends on the method and setting. In cells and extracts the contact can be indirect. A result given as binding can be weak or reduced; the word gives no strength. Where a sequence is shown, tags or fusion partners need not be part of it.

In one assay the target is T1, Flag-ARD1 (UniProt P41227).
T1 sequence: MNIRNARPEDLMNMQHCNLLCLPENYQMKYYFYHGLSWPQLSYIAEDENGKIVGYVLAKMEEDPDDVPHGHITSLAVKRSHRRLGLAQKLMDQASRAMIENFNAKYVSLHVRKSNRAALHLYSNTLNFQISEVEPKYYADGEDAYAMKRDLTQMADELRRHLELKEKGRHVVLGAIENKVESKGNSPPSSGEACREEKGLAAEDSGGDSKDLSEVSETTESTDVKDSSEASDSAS
The assay is described as follows: co-IP; sequential immunoprecipitation from 293T cells co-transfected with His-AR and Flag-ARD1, immunoblotting with antibodies as indicated; lysis/wash buffer 50 mM Tris-HCl pH 7.4, 150 mM NaCl, 1 mM EDTA, 1% Triton-X. For orientation: A western blot detects proteins with antibodies after separation by electrophoresis.

The next assay addresses T2, Myc-ARD1-WT (UniProt P41227).
T2 sequence: T1 sequence
The assay can be described thus: co-IP; AR-WT and Myc-ARD1-WT transfected in Cos-7 cells, without R1881; immunoprecipitated with anti-Myc antibody.

In the case of His-AR (receptor), the binding result in the assay with Flag-ARD1 is listed as “binds”.
On to wild-type androgen receptor (AR-WT), for which, in the assay with Myc-ARD1-WT, the binding entry is reported as “binds”.
